Source: the supplement of paper PMC10849652
The list shows a part of the results.

By UniProt entry, the sequences of proteins in these tests, tags left out. Where a name states a change or a piece, a line headed by the entry shows the natural chain unless it says otherwise.
UniProt Q8N9Z2: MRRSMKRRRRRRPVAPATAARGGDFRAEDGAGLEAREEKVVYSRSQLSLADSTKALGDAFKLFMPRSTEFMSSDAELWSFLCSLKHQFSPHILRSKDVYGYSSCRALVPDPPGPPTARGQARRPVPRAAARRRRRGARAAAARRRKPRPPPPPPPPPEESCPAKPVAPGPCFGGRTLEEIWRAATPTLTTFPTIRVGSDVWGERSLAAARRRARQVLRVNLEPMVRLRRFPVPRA
UniProt P55210: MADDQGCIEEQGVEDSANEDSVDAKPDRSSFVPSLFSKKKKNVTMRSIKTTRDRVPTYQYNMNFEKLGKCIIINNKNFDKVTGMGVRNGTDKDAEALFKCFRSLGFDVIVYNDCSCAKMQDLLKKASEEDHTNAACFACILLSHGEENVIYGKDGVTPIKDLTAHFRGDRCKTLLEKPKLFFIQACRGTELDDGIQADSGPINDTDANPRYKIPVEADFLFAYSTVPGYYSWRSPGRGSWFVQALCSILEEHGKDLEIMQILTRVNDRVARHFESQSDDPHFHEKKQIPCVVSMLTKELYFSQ
UniProt Q92526, whole entry, looked up: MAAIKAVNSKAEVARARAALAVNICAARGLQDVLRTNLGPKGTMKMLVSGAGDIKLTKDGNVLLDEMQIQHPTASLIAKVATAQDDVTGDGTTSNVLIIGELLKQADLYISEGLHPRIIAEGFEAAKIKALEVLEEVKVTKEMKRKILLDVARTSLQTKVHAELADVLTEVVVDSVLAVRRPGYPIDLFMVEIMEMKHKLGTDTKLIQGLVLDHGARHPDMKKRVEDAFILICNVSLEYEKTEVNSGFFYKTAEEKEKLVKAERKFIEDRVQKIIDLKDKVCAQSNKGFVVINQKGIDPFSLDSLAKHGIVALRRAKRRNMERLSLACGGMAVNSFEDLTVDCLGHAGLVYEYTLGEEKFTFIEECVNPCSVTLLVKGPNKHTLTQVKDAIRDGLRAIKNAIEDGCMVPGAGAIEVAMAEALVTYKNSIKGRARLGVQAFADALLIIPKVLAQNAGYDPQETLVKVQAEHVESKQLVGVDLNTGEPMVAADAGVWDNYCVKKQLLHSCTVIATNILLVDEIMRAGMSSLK
UniProt Q75N03: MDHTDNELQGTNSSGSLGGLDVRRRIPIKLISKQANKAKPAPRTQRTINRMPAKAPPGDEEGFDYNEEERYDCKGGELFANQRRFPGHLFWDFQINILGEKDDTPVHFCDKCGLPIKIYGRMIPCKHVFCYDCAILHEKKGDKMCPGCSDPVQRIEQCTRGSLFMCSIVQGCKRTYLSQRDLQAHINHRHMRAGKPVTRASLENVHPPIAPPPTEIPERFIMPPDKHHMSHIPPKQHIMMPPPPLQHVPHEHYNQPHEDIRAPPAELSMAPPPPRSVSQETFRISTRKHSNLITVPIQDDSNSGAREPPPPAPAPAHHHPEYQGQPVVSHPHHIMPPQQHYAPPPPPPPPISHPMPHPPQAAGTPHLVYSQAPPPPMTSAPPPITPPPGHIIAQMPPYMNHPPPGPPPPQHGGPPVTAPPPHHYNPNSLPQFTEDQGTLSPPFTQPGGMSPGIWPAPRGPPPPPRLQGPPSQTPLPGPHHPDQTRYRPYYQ
UniProt Q9NQ75: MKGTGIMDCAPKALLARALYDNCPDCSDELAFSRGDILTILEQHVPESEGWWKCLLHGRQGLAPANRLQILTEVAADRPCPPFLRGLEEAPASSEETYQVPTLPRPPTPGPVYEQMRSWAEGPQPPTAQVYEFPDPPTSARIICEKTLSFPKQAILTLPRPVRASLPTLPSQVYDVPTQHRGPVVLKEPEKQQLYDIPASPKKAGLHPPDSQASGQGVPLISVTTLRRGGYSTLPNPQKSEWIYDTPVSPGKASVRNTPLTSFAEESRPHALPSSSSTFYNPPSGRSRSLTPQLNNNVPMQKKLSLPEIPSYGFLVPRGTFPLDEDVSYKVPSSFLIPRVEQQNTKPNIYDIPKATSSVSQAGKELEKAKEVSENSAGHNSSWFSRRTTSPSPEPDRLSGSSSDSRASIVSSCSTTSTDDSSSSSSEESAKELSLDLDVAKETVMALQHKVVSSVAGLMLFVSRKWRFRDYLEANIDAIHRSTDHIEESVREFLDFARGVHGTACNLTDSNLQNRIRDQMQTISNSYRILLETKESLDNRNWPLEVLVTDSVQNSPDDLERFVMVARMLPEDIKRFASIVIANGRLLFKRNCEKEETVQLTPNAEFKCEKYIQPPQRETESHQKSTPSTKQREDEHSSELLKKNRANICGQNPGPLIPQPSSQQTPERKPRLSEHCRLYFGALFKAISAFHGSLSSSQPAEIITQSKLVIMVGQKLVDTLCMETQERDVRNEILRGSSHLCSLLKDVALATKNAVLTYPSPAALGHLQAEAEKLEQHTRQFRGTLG
UniProt P34810: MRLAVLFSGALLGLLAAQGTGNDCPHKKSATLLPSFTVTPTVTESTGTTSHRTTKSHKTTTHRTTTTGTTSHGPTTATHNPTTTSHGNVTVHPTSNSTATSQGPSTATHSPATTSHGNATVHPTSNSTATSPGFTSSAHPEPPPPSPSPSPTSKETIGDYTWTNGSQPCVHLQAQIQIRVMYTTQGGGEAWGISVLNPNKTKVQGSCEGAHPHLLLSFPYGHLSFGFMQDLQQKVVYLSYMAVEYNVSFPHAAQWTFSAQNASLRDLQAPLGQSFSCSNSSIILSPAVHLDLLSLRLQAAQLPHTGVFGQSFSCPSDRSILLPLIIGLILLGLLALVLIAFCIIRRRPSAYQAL
UniProt Q4G0S7: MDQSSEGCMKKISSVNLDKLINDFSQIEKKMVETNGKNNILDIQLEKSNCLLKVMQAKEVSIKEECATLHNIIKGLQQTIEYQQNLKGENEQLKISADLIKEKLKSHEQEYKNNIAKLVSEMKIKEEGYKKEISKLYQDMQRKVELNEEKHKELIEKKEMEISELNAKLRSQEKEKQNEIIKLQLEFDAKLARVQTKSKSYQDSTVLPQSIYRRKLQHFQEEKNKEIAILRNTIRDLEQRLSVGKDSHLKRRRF
UniProt P30281: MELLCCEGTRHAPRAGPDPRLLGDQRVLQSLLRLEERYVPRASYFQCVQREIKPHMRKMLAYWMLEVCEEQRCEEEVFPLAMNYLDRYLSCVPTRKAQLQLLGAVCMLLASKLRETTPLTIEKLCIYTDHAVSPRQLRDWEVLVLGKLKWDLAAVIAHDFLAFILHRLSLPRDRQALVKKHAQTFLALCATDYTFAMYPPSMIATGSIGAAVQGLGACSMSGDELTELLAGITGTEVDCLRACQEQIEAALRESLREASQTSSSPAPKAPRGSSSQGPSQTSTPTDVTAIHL
UniProt P25942, whole entry, looked up: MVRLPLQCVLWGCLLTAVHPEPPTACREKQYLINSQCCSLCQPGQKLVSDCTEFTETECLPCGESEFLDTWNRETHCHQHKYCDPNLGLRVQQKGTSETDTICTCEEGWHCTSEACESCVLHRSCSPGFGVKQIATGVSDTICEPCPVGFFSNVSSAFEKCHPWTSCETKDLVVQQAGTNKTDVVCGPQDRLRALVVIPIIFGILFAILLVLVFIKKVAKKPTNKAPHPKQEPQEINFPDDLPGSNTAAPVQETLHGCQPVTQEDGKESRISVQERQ
UniProt P19397: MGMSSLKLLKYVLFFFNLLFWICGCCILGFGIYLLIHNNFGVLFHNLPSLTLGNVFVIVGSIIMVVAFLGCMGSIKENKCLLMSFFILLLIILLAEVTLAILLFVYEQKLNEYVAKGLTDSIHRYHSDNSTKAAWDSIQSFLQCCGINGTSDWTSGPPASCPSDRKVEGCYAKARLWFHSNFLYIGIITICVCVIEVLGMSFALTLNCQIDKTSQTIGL
UniProt P30279, whole entry, looked up: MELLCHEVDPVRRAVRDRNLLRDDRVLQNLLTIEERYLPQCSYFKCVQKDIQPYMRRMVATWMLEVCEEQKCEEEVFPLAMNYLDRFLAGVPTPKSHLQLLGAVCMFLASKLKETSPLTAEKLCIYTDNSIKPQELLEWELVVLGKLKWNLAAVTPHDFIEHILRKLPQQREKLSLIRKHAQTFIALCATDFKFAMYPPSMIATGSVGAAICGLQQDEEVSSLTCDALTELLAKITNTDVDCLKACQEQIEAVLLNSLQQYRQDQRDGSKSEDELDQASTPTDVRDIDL
UniProt Q5T9S5: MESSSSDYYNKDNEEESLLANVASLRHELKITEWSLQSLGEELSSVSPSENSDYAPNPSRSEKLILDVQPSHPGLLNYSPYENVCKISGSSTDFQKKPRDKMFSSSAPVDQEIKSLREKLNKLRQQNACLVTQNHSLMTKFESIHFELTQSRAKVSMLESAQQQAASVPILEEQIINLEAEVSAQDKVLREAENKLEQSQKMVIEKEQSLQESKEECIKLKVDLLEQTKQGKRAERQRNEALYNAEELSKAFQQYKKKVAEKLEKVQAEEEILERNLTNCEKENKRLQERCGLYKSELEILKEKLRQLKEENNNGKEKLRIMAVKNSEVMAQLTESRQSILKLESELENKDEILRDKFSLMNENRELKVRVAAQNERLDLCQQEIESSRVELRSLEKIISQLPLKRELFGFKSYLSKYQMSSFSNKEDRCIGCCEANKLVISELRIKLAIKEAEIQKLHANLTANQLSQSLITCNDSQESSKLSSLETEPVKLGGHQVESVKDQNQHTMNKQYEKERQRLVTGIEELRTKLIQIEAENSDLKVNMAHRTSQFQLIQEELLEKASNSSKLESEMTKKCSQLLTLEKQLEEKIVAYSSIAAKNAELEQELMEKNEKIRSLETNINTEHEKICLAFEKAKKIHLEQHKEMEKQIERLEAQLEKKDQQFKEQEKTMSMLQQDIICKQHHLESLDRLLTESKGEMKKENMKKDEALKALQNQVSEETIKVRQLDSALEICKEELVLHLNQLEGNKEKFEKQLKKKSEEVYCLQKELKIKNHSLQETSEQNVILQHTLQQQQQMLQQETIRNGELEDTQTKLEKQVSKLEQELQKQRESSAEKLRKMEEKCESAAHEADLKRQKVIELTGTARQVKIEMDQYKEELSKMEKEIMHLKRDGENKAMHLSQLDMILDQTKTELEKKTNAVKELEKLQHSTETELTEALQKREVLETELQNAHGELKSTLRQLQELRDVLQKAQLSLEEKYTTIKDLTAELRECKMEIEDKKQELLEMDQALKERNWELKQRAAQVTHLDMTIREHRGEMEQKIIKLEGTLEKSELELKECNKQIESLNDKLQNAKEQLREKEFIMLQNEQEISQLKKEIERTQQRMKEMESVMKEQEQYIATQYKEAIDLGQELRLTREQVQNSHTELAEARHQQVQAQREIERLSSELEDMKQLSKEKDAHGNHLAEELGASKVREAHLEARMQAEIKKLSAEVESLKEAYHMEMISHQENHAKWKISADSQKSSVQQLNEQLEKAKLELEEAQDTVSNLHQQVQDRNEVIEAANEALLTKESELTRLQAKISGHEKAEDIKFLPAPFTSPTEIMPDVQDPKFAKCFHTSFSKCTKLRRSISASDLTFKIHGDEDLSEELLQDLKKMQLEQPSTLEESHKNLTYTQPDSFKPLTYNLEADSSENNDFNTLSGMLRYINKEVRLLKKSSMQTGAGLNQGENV
UniProt Q9BX69: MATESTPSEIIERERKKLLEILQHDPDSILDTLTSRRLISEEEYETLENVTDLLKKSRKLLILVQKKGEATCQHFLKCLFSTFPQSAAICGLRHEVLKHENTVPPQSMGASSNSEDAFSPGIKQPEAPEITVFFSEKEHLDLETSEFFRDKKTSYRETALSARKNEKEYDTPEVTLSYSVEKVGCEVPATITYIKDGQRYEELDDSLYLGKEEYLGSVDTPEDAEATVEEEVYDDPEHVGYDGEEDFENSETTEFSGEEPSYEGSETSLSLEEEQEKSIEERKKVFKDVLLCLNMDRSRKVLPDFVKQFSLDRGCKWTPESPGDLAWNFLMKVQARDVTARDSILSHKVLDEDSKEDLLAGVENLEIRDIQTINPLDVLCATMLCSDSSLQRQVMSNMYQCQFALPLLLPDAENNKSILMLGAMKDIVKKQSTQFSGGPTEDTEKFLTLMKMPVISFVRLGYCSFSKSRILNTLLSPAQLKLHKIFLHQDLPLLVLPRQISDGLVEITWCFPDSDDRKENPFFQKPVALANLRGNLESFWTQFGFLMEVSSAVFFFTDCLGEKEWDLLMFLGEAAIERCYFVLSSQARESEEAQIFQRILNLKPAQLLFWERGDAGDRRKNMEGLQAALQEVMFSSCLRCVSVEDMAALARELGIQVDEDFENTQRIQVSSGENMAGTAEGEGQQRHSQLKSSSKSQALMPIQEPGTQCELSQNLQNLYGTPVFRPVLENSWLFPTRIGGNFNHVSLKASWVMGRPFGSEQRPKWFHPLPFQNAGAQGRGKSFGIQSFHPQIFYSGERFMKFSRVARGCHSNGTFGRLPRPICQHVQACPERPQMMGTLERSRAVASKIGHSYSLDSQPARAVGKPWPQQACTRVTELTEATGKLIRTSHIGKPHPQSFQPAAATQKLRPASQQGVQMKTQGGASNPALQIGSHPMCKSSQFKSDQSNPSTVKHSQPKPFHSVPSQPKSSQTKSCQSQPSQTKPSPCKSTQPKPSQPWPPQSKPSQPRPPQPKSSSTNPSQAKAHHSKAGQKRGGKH

Assays:
Assay in all cases: log2 fold change, soluble protein after heating vs DMSO (PISA); higher = thermal stabilisation; K562 lysate, 10 uM; active = over 0.2 and 3.5 SD of the protein, either way, in both replicates (recomputed)
[1] = compound: Cc1sc2c(c1C)C(c1ccc(Cl)cc1)=N[C@@H](CC(=O)OC(C)(C)C)c1nnc(C)n1-2
How it was run: (§1)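 Pellets of K562 cells were dounce-homogenised in PBS pH 7.4 with 1 mM MgCl2, and the crude extract was held at 1 mg/mL protein for a 30 min treatment with 10 μM compound. Aliquots were heated for 3 min over 48°C-58°C and pooled before NP-40 was added to 0.5% at 4°C. The supernatant from 21,000xg for 90 min was quantified by TMTpro 16plex LC-MS/MS with channel sums equalised. Values are reported from duplicates as log-two fold change in thermal stability relative to solvent controls.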

[2] = compound: c1ccc([C@@H]2C[C@H]2NC2CCNCC2)cc1
How it was run: as §1

[3] = compound: C1=CC=C(C=C1)[C@H](COC2=CC3=C(C=C2)NC(=O)N3)NC(=O)C4=CC=CN(C4=O)CC5=CC(=C(C=C5)F)F
How it was run: as §1

[4] = compound: CC1=C(SC2=C1C(=N[C@H](C3=NN=C(N32)C)CC(=O)N)C4=CC=C(C=C4)Cl)C
How it was run: as §1

[5] = compound: CC1=C2C(=CC=C1)N=C(N(C2=O)C3=CC=CC=C3C)CN4C=NC5=C(N=CN=C54)N
How it was run: as §1

Row | Target | log2 fold change [1] | log2 fold change [2] | log2 fold change [3] | log2 fold change [4] | log2 fold change [5]
1 | CCDC71L (UniProt Q8N9Z2) | inactive: -0.005 | inactive: -0.004 |  |  | 
2 | CASP7 isoform 3 (UniProt P55210) | inactive: -0.105 |  | inactive: 0.035 | inactive: -0.02 | 
3 | CBFA2T2 isoform 4 (UniProt O43439) | inactive: 0.148 | inactive: -0.043 |  |  | inactive: -0.037
4 | CASC1 (UniProt Q6TDU7) |  | inactive: 0.046 | inactive: -0.256 | inactive: 0.037 | 
5 | CCT6B (UniProt Q92526) |  | inactive: 0.018 | inactive: 0.006 | inactive: -0.165 | 
6 | CBLL1 (UniProt Q75N03) | inactive: 0.01 | inactive: -0.015 |  |  | inactive: 0.017
7 | CASS4 (UniProt Q9NQ75) | inactive: 0.015 | inactive: -0.008 |  |  | inactive: -0.061
8 | CD68 (UniProt P34810) |  | inactive: 0.069 |  |  | 
9 | CCDC9, A0A2R8Y4Z8 | inactive: -0.174 |  | inactive: -0.021 | inactive: 0.072 | 
10 | CCDC152 (UniProt Q4G0S7) | inactive: -0.037 |  |  |  | inactive: -0.085
11 | CCND3 (UniProt P30281) | inactive: 0.036 | inactive: -0.023 | inactive: 0.043 | inactive: 0.051 | 
12 | CCHCR1 isoform 2 (UniProt Q8TD31) |  | inactive: -0.15 | inactive: 0.151 | inactive: 0.179 | inactive: 0.037
13 | CD40 (UniProt P25942) |  | inactive: 0.199 |  |  | 
14 | CCNB1 (UniProt P14635) | inactive: -0.032 | inactive: 0.036 | inactive: -0.019 | inactive: 0.063 | inactive: 0.038
15 | CD53 (UniProt P19397) |  | inactive: -0.078 | inactive: 0.048 | inactive: -0.032 | inactive: -0.036
16 | CCND2 (UniProt P30279) | inactive: 0.066 |  | inactive: -0.114 | inactive: 0.12 | 
17 | CD44 (UniProt P16070) |  | inactive: 0.024 |  |  | 
18 | CCDC18 (UniProt Q5T9S5) | inactive: -0.074 | inactive: -0.277 |  |  | 
19 | CARD6 (UniProt Q9BX69) | inactive: 0.001 |  |  |  | inactive: -0.03
20 | CCDC136 isoform 4 (UniProt Q96JN2) | inactive: -0.062 | inactive: 0.101 |  |  | inactive: 0.04
21 | CD33 (UniProt P20138) | inactive: -0.069 | inactive: 0.038 |  |  | 

Numbers 19 to 20, quoted:
Row | Target | log2 fold change [1] | log2 fold change [2] | log2 fold change [3] | log2 fold change [4] | log2 fold change [5]
19 | CARD6 (UniProt Q9BX69) | inactive: 0.001 |  |  |  | inactive: -0.03
20 | CCDC136 isoform 4 (UniProt Q96JN2) | inactive: -0.062 | inactive: 0.101 |  |  | inactive: 0.04
